# Measured values from PubChem BioAssay AID2685 (National Center for Advancing Translational Sciences (NCATS), 2010).
# Some of the results follow. These are further read-outs of the screen, such as a control signal, another cell line or another target. No call is given for them. Compounds called inactive in the main read-out are mostly missing here. Words in brackets tell the shape of the fitted curve; partial curves, single points and poor fits give uncertain potencies.
# Assay: qHTS Assay for Lipid Storage Modulators in Drosophila S3 Cells;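 as to cell number change: cells counted by Cell Tracker Red CMTPX staining in the red channel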
# Conditions: BODIPY lipid droplet fluorescence, 18-24 h; for cell number change: measured here: cell count max response, cells fed with added oleic acid
# In short: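 Laser-scanning cytometry quantifies lipid droplet accumulation (500–530 nm total intensity; droplet/cell object ratio) in oleic acid-fed (400 uM added) Drosophila S3 cells treated with a concentration series. 20 uM Triacsin C defined 100% inhibition.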
# [1] = measured here: lipid fluorescence (Fed channel) AC50, cells fed with added oleic acid
# [2] = measured here: cell number channel AC50, cells fed with added oleic acid
SMILES,cell number change [%],AC50 [1],AC50 [2]
O=C(/C=C/c1ccc(Cl)c(C(F)(F)F)c1)N1CCN(c2ccccn2)CC1,6.25,"0.731 µM [rising, full curve]",
O=C(CCc1nc2ccccc2[nH]1)Nc1ccccc1,11,"4.11 µM [rising, single point]",
CCCCCCCCCCCCCCCC[n+]1cccc2ccccc21,-65.2,"1.3 µM [falling, full curve]","2.59 µM [falling, full curve]"
CC(=O)c1ccc2oc3ccccc3c(=O)c2c1,7.19,"29.1 µM [falling, single point]",
CC(C)Oc1snc(Cl)c1C(N)=O,-11.4,"29.1 µM [falling, partial curve]","0.00461 µM [falling, full curve, poor fit]"
CC1CN(C(c2ccco2)c2sc3ncnn3c2O)CC(C)O1 (stereo unspecified),10.9,,
O=C(/C=C/c1ccc(Cl)cc1Cl)Nc1ccncc1,-33.2,"3.66 µM [rising, single point]","0.103 µM [rising, full curve, poor fit]"
COc1ccc(C)cc1NC(=O)CSc1nnc(-c2cc(C)[nH]n2)n1N,11.3,"29.1 µM [rising, single point]",
CS(=O)(=O)N(CC(=O)Nc1ccc(S(=O)(=O)N2CCOCC2)cc1)c1cccc(F)c1,-0.119,"1.64 µM [falling, partial curve, poor fit]",
O=C(c1ccc(Br)o1)N1CCN(Cc2ccc3c(c2)OCO3)CC1,-13.8,"4.11 µM [rising, single point]",
COc1ccc(-c2oc3ncn(Cc4ccco4)c(=N)c3c2-c2ccc(OC)cc2)cc1,2.05,,
O=C(C1CC1)N1N=C2CCCCC2C1(O)C(F)(F)F (stereo unspecified),16.4,,"0.0058 µM [rising, full curve, poor fit]"
NC(=S)NN=C1c2cc(S(=O)(=O)N3CCOCC3)ccc2-c2ccc(S(=O)(=O)N3CCOCC3)cc21,-58.8,"4.61 µM [falling, full curve]","2.59 µM [falling, partial curve]"
Cc1ccc(N2C(=O)/C(=C/c3cccnc3)SC2=S)cc1,-3.18,"29.1 µM [rising, single point]",
CN(c1cccc(Cl)c1)S(=O)(=O)c1cccc(C(=O)Nc2ccc3c(c2)CCC3)c1,-9.78,,
O=C(c1cc(-c2ccccc2Cl)on1)N1CCCC1,14.5,,
O=C(COC(=O)/C=C/c1cccc(F)c1)Nc1ccc(Cl)cn1,21.7,"0.00517 µM [rising, full curve, poor fit]",
Cc1cc(C)n(CCO)c(=O)n1,-22.9,"2.06 µM [falling, full curve, poor fit]","0.116 µM [falling, full curve, poor fit]"
COC(=O)c1cc(N2CCN(C)CC2)nc2ccccc12,49.9,"29.1 µM [rising, partial curve, poor fit]","0.92 µM [rising, full curve, poor fit]"
Cc1ccc(C(=O)C[n+]2ccc(-c3nnc4n3CCC4)cc2)cc1,7.22,"18.4 µM [rising, single point]",

SMILES,cell number change [%],AC50 [1],AC50 [2]
COc1cccc(OCCNc2cc(N3CCOCC3)ccc2[N+](=O)[O-])c1,11.6,"8.2 µM [rising, partial curve]","3.66 µM [rising, single point]"
CC1CCCCC12NC(=O)N(CC(=O)OCC(=O)NCc1ccc(F)cc1)C2=O (stereo unspecified),2.14,"1.84 µM [rising, single point]",
Cn1cccc1C(=O)NC(=O)COC(=O)CC12CC3CC(CC(C3)C1)C2,-8.52,,"0.651 µM [falling, full curve, poor fit]"
COc1ccc(-c2oc3ccc(-c4cc(OC)c(OC)c(OC)c4)cc3c2-c2ccc(OC)nc2)cc1,34.3,"9.2 µM [rising, partial curve]","16.4 µM [rising, single point]"
COc1ccc(NCc2n[nH]c(=O)c3ccccc23)cc1,89.2,"16.4 µM [rising, partial curve]","14.6 µM [rising, partial curve]"
CC1=C(C(=O)Nc2ccc(C)cc2)C(c2ccc(C)o2)C2=C(CC(C)(C)CC2=O)N1 (stereo unspecified),,"6.51 µM [falling, single point]",
CCCNC(=O)c1cc(SC)ccc1Cl,-7.64,,
CC1CCCC(NC(=O)CN2CCN(S(=O)(=O)c3cccs3)CC2)C1C (stereo unspecified),7.32,"0.651 µM [rising, full curve, poor fit]",
CCN(CC)S(=O)(=O)c1ccc(NS(=O)(=O)c2ccc3oc(=O)[nH]c3c2)cc1,18.4,,
Cc1ccccc1Nc1c([N+](=O)[O-])ccc2nonc12,2.78,"29.1 µM [rising, single point]",
COc1ccc(C)cc1NC(=O)C1CCCN(S(=O)(=O)c2ccc3c(c2)CCCN3C(C)=O)C1 (stereo unspecified),3.67,"0.164 µM [falling, full curve, poor fit]",
Cc1nn2c(N3CCN(C)CC3)cc(C(C)(C)C)nc2c1-c1ccccc1,-32.4,"18.4 µM [falling, single point]","29.1 µM [falling, single point]"
CC1CCCN(C(=O)C2CC(=O)N(c3ccc(Cl)cc3)C2)C1 (stereo unspecified),1.8,"6.51 µM [falling, single point]",
CC(=O)c1ccc2c(c1)OCCOCCOCCOCCO2,-43.3,,"0.651 µM [falling, full curve]"
O=C(Nc1cccc(-c2nc3cccnc3s2)c1)C1c2ccccc2Oc2ccccc21,-39.7,"4.11 µM [falling, full curve]","4.11 µM [falling, full curve]"
CCOc1ccc(OCC(=O)OCC(=O)Nc2ccc3[nH]c(=O)[nH]c3c2)cc1,-15.6,"25.9 µM [falling, partial curve, poor fit]",
COc1ccccc1NS(=O)(=O)c1ccc(Br)s1,-14.6,,"1.84 µM [falling, partial curve]"
Cc1nn(CC(=O)NCC(C)c2ccccc2)c(=O)c2cc(-c3ccccc3)nn12 (stereo unspecified),-4.72,"1.64 µM [rising, full curve]",
Cc1cc(CNC(=O)c2ccc3oc(C(C)C)nc3c2)nn1C,4.28,"7.31 µM [rising, single point]",
CC(C)[C@H](NC(=O)c1ccccc1)C(=O)OCc1nc2scc(-c3ccccc3)c2c(=O)[nH]1,33.8,"16.4 µM [rising, single point]","11.6 µM [rising, partial curve]"

SMILES,cell number change [%],AC50 [1],AC50 [2]
O=C1c2ccccc2NC(c2ccc(O)cc2)N1Cc1ccco1 (stereo unspecified),55.3,"6.51 µM [rising, partial curve, poor fit]","8.2 µM [rising, partial curve]"
O=C(c1cc2nc(-c3ccco3)cc(C(F)(F)F)n2n1)N1CCc2ccccc2C1,21.7,"0.731 µM [rising, full curve]","0.731 µM [rising, full curve]"
Cc1cccc(OCC(=O)Nc2ccc(N3CCN(C(=O)c4ccccc4)CC3)cc2)c1C,15.5,"6.51 µM [rising, single point]",
COC(=O)c1cc(C(=O)Nc2nc3ccccc3[nH]2)cc([N+](=O)[O-])c1,0.833,,
CCCCCNc1nc(-c2ccccc2)cs1,51.4,"4.61 µM [rising, single point]","6.51 µM [rising, partial curve]"
Cc1ccc(C(=O)C[n+]2ccc(Cc3ccccc3)cc2)cc1,-14.3,,
CCOC(=O)c1cc2sccc2n1CCCN1C(=O)c2ccccc2C1=O,-23.8,,
COc1cc(OC)cc(C(=O)NC(C(=O)N2CCc3ccccc3C2)C(C)C)c1 (stereo unspecified),5.65,,
CS(=O)(=O)N1N=C(c2ccc(Br)cc2)CC1c1cccs1 (stereo unspecified),58.4,,"14.6 µM [rising, partial curve]"
CC(C)CC1Nc2ncnc(N3CCN(c4ccccn4)CC3)c2N(Cc2ccc(Br)cc2)C1=O (stereo unspecified),30.2,"16.4 µM [rising, partial curve]","14.6 µM [rising, single point]"
Cc1nc2ccc(S(=O)(=O)NC(C(=O)Nc3nc4ccc(Cl)cc4s3)C(C)C)cc2s1 (stereo unspecified),-38.6,,"32.6 µM [falling, partial curve, poor fit]"
CC(=O)Nc1ccc(NC(=S)NC(=O)c2ccc([N+](=O)[O-])cc2)cc1,9.63,"23.1 µM [rising, single point]",
CCCCC1S/C(=N/N=C/c2cccs2)NC1=O (stereo unspecified),-14.9,,
Nc1c(C=C2C=CC(=O)C=C2)c(=O)nc2sc(CC(=O)N3CCOCC3)nn12,-13.4,"29.1 µM [rising, single point]",
CC(=O)Nc1ccc2c(CSc3nncs3)cc(=O)oc2c1,8.17,"1.03 µM [rising, full curve]",
CCc1c(O)nc(SCC(=O)Nc2ccc(OC)cc2)n(C2CCCCC2)c1=O,58.1,,"29.1 µM [rising, single point]"
CC(C)n1nc(C(=O)Oc2cc(Cl)ccc2Cl)c2ccccc2c1=O,27.1,"0.00461 µM [falling, full curve, poor fit]",
O=C(COc1ccccc1[N+](=O)[O-])N(Cc1ccco1)C1CCS(=O)(=O)C1 (stereo unspecified),-25.5,,
CCCn1c(=O)c2ccccc2n2c(Sc3nnnn3-c3ccccc3)nnc12,-23.8,"1.84 µM [falling, partial curve, poor fit]",
